In assay [1] the target is SHP1 (mouse (endogenous in J774A.1 and BMDM)) (UniProt P29351). Kind of assay: co-IP; BMDM lysates (150 ug/lane), uninfected or L. donovani infected; antibody 1:100 overnight at 4 C, Sepharose-4B-protein-A, immunoblot; also after Neu1 overexpression and siglec-E siRNA together.
Assay [2] has the same target. Kind of assay: co-IP; J774A.1 lysates (500 ug/lane), uninfected or L. donovani infected (2 h); antibody 1:100 overnight at 4 C, Sepharose-4B-protein-A, PBS washes, immunoblot; also after MALII pre-treatment, infection with neuraminidase-treated parasites, Neu1 overexpression, siglec-E siRNA or both together; IgG lane as negative control.

By UniProt entry, the sequences of proteins in these tests, tags left out. Where a name states a change or a piece, a line headed by the entry shows the natural chain unless it says otherwise.
UniProt P29351: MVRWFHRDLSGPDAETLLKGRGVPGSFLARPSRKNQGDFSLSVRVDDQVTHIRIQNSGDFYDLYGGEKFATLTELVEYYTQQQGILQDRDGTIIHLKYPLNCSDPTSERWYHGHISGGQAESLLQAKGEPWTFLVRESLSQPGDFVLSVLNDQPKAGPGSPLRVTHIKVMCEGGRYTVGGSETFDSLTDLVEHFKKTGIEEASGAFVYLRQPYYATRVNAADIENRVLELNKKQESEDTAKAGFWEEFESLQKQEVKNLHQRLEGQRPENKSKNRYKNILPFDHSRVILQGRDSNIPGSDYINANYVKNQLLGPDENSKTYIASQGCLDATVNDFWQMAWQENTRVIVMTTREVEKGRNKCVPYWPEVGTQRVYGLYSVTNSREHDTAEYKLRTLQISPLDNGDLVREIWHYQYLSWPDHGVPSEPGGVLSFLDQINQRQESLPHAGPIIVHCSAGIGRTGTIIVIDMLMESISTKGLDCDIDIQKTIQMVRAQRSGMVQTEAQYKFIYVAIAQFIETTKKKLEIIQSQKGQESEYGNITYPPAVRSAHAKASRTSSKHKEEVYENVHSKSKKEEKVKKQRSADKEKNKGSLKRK

These are yes or no findings as the source states them, for the method shown. In cells and extracts the contact can be indirect. Some entries that bind do so weakly or less than the wild type.

B1: siglec-E (receptor, UniProt Q91Y57 19-467)
chain: QNPQEVFTLNVERKVVVQEGLCVLVPCNFSYLKKRLTDWTDSDPVHGFWYREGTDRRKDSIVATNNPIRKAVKETRNRFFLLGDPWRNDCSLNIREIRKKDAGLYFFRLERGKTKYNYMWDKMTLVVTALTNTPQILLPETLEAGHPSNLTCSVPWDCGWTAPPIFSWTGTSVSFLSTNTTGSSVLTITPQPQDHGTNLTCQVTLPGTNVSTRMTIRLNVSYAPKNLTVTIYQGADSVSTILKNGSSLPISEGQSLRLICSTDSYPPANLSWSWDNLTLCPSKLSKPGLLELFPVHLKHGGVYTCQAQHALGSQHISLSLSPQSSATLSEMMMGTFVGSGVTALLFLSVCILLLAVRSYRRKPARPAVVAPHPDALKVSVSQNPLVESQADDSSEPLPSILEAAPSSTEEEIHYATLSFHEMKPMNLWGQQDTTTEYSEIKFPQRTAWP
modifications: tyrosine phosphorylation (enhanced in infected macrophages), residues not stated
Regarding B1, the binding entry in assay [1] and in assay [2] was “binds” each time.
